# This is one part of the list. These are further read-outs of the screen, such as a control signal, another cell line or another target. No call is given for them. Most of these compounds were active or inconclusive in the main read-out, so they are no random draw. Words in brackets tell the shape of the fitted curve; partial curves, single points and poor fits give uncertain potencies.
# Test: Cell signaling CRE-BLA (Fsk stim)
# Details: CHO CRE-bla reporter (cAMP response element driving beta-lactamase), forskolin EC10, beta-lactamase ratio; measured here: 460 nm blue channel
# Method in brief: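 Modulation of forskolin-driven signalling is measured in CHO cells carrying a CRE-controlled beta-lactamase reporter. Cells are stimulated with EC10 NKH 477 in the presence of titrated compound for 3 h at 37 °C, then loaded with CCF4 for 2 h at room temperature.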
row,SMILES,AC50
1,CC1Cc2nc(SCC(=O)Nc3ccc(F)cc3F)n(C)c(=O)c2S1 (centres undefined),"5.01 µM [falling, single point]"
2,COc1ccc(CNS(=O)(=O)c2ccc3oc(C(=O)O)c(C)c3c2)cc1,"5.01 µM [falling, single point]"
3,O=C(c1cccs1)N1CCCC(c2nc(-c3ccc(F)cc3)no2)C1 (centres undefined),"15.8 µM [rising, partial curve]"
4,Cc1cc2nn(-c3ccccc3)nc2cc1NC(=O)c1cccs1,"6.31 µM [falling, partial curve]"
5,Cc1ccc(-c2noc(C3CCCN(C(=O)c4c(F)cccc4F)C3)n2)cc1 (centres undefined),"5.01 µM [falling, single point]"
6,Cc1nc2ccccc2c(=O)n1/N=C/c1ccc(O)cc1,"5.01 µM [rising, full curve, poor fit]"
7,Cc1cnn(-c2nc(-c3cccs3)cc(C(F)(F)F)n2)c1,"12.6 µM [rising, partial curve]"
8,Cc1ccc(NC(=O)CCn2cnc3ccccc3c2=O)cc1Cl,"12.6 µM [rising, single point]"
9,COc1cccc(Nc2ncc3nc(-c4cn(C)c5ccccc45)c(=O)n(C[C@H]4CCCO4)c3n2)c1,"12.6 µM [rising, partial curve]"
10,COC(=O)CC(=O)CSc1nc2c(cc1C#N)CCCCC2,"12.6 µM [rising, single point]"
11,Cc1ccc(SC(C)c2nc(-c3ccncc3)no2)cc1 (centres undefined),"12.6 µM [rising, partial curve]"
12,C=CCn1c(=O)[nH]c2cc(C(=O)N3CCN(c4ccc(C(C)=O)cc4)CC3)ccc2c1=O,"7.94 µM [rising, partial curve, poor fit]"
13,CCC(C)(C)n1nnnc1C(c1cc2ccc(OC)cc2[nH]c1=O)N1CCc2ccccc2C1 (centres undefined),"25.1 µM [rising, single point]"
14,c1ccc(COc2ccc(Nc3ncnc4nc[nH]c34)cc2)cc1,"10 µM [rising, partial curve]"
15,Cc1cc(=O)oc2cc3c(cc12)OCCN3,"10 µM [rising, partial curve]"
16,O=C(c1ccccc1)c1cccn1CC(=O)N1CCN(c2ccccc2)CC1,"0.251 µM [falling, full curve, poor fit]"
17,COCCn1c(-c2cc(OC)c(OC)c(OC)c2)nc2oc3ccccc3c(=O)c2c1=O,"2 µM [rising, full curve]"
18,CC(=O)NCCn1c(SCc2ccccc2F)nc2ccccc2c1=O,"7.94 µM [rising, partial curve]"
19,CCNc1nc(OC)nc(Oc2ccc(=O)n(-c3ccccc3)n2)n1,"12.6 µM [rising, single point]"
20,CCOc1ccc(NC(=O)C2CC(C)=C(C)CC2C(=O)O)cc1 (centres undefined),"1.58 µM [falling, partial curve]"
21,Cc1cc(C)n(-c2ccc(C(=O)OCc3nnc(-c4ccccc4)o3)cc2)n1,"15.8 µM [falling, single point]"
22,S=c1[nH]c2ncccc2o1,"5.01 µM [falling, single point]"

row,SMILES,AC50
1,COC(=O)c1ccccc1NS(=O)(=O)c1cn(C)c(=O)n(C)c1=O,"25.1 µM [rising, single point]"
2,Cn1c(=O)c2c(-c3ccc(C(C)(C)C)cc3)n(N3CCOCC3)cc2n(C)c1=O,"0.00316 µM [rising, full curve, poor fit]"
3,O=C(CSc1nc2cc(Cl)ccc2s1)c1ccco1,"25.1 µM [rising, single point]"
4,CCC1(C)NC(=O)N(CC(=O)Nc2sc3c(c2C(N)=O)CCC3)C1=O (centres undefined),"0.00316 µM [falling, full curve, poor fit]"
5,Cc1ccc(-c2nc3ncccn3c2NC2CCCC2)o1,"0.00316 µM [falling, full curve, poor fit]"
6,COc1ccc(C(=O)CSc2nnc(CNc3ccc(C)cc3C)n2Cc2ccco2)cc1,"0.398 µM [falling, full curve, poor fit]"
7,COC(=O)Cc1cc(=O)[nH]c(Nc2nc3ccccc3o2)n1,"1 µM [falling, partial curve, poor fit]"
8,COc1ccc(C(c2sc3nc(C)nn3c2O)N2CCC(O)CC2)cc1OC (centres undefined),"2.51 µM [rising, full curve]"
9,COc1cccc(-c2nc(CS(=O)(=O)CC(=O)NCCCN3CCc4ccccc4C3)c(C)o2)c1,"12.6 µM [falling, single point]"
10,O=C(CSc1nnc(-c2ccco2)o1)c1ccc(F)c(F)c1,"25.1 µM [rising, single point]"
11,COc1ccc(C2C=C(c3ccccc3)Nc3ncnn32)cc1 (centres undefined),"25.1 µM [rising, single point]"
12,O=C(Nc1cccc(C(=O)N2CCCC2)c1)c1ccccc1,"0.794 µM [rising, full curve]"
13,O=c1[nH]c2ccc(Cl)cc2c(-c2ccccc2)c1N1CCOCC1,"15.8 µM [rising, single point]"
14,Cc1ccc(C)c(S(=O)(=O)Nc2ccccc2C(=O)Nc2cc(C)on2)c1,"3.98 µM [falling, partial curve]"
15,CCN(CC)C(=O)C1CCCN(Cc2ccccc2C(F)(F)F)C1 (centres undefined),"0.398 µM [rising, full curve]"
16,C=CC(=O)OCCCCCCOC(=O)C=C,"15.8 µM [falling, partial curve]"
17,CCN(CCCNC(=O)CN(C)S(=O)(=O)c1cccc2nsnc12)c1ccccc1,"15.8 µM [rising, single point]"
18,CN(C)c1nc(-c2ccoc2)nc2ccccc12,"10 µM [rising, partial curve]"
19,COc1ccc(CCNC(=O)c2cc(-c3ccccc3OC)on2)cc1OC,"0.316 µM [rising, single point]"
20,O=C(CCc1nc(-c2ccccc2F)no1)NCCc1ccccc1Cl,"3.16 µM [falling, full curve]"
21,O=C(NCCCN1CCOCC1)NC12CC3CC(CC(C3)C1)C2,"5.01 µM [falling, single point]"
22,c1ccc(CN(CC2=NCCN2)c2ccccc2)cc1,"10 µM [falling, partial curve, poor fit]"

# 11 structures from above, sorted by molecular weight, smallest number first.
row,SMILES,AC50
16,C=CC(=O)OCCCCCCOC(=O)C=C,"15.8 µM [falling, partial curve]"
18,CN(C)c1nc(-c2ccoc2)nc2ccccc12,"10 µM [rising, partial curve]"
7,COC(=O)Cc1cc(=O)[nH]c(Nc2nc3ccccc3o2)n1,"1 µM [falling, partial curve, poor fit]"
3,O=C(CSc1nc2cc(Cl)ccc2s1)c1ccco1,"25.1 µM [rising, single point]"
21,O=C(NCCCN1CCOCC1)NC12CC3CC(CC(C3)C1)C2,"5.01 µM [falling, single point]"
10,O=C(CSc1nnc(-c2ccco2)o1)c1ccc(F)c(F)c1,"25.1 µM [rising, single point]"
13,O=c1[nH]c2ccc(Cl)cc2c(-c2ccccc2)c1N1CCOCC1,"15.8 µM [rising, single point]"
15,CCN(CC)C(=O)C1CCCN(Cc2ccccc2C(F)(F)F)C1 (centres undefined),"0.398 µM [rising, full curve]"
20,O=C(CCc1nc(-c2ccccc2F)no1)NCCc1ccccc1Cl,"3.16 µM [falling, full curve]"
8,COc1ccc(C(c2sc3nc(C)nn3c2O)N2CCC(O)CC2)cc1OC (centres undefined),"2.51 µM [rising, full curve]"
17,CCN(CCCNC(=O)CN(C)S(=O)(=O)c1cccc2nsnc12)c1ccccc1,"15.8 µM [rising, single point]"

# — PubChem BioAssay AID662 (National Center for Advancing Translational Sciences (NCATS), 2007)
